Here are results for two molecules from PMC8827149.

Experiment [1] addresses BBX24IR, protein encoded by the intron-retained splicing variant of BBX24 (Arabidopsis thaliana). The experiment in a line: two-hybrid; S. cerevisiae AH109; Gal4 AD fusion in pGAD-T7 (FL cDNA; for the self test AD-BBX22IR) with Gal4 BD fusion in pGBK-T7 (IR isoform); growth on DO-LWHA (-Leu -Trp -His -Adenine) at 28 °C for 2 days, DO-LW as control.
Experiment [2] addresses BBX22IR, protein encoded by the intron-retained splicing variant of BBX22 (Arabidopsis thaliana). The description is as above.

These are yes or no findings as the source states them, for the method shown. Binding can be weak; no strength is given.

B1: B-BOX DOMAIN PROTEIN 24 (BBX24), annotated full-length protein (protein, UniProt Q96288 1-248)
chain: MKIQCDVCEKAPATVICCADEAALCPQCDIEIHAANKLASKHQRLHLNSLSTKFPRCDICQEKAAFIFCVEDRALLCRDCDESIHVANSRSANHQRFLATGIKVALTSTICSKEIEKNQPEPSNNQQKANQIPAKSTSQQQQQPSSATPLPWAVDDFFHFSDIESTDKKGQLDLGAGELDWFSDMGFFGDQINDKALPAAEVPELSVSHLGHVHSYKPMKSNVSHKKPRFETRYDDDDEEHFIVPDLG
On to B1, for which, in experiment [1], the binding entry is recorded as “binds”.

B2: B-BOX DOMAIN PROTEIN 22 (BBX22), annotated full-length protein (protein, UniProt Q9SYM2 1-299)
chain: MKIQCNVCEAAEATVLCCADEAALCWACDEKIHAANKLAGKHQRVPLSASASSIPKCDICQEASGFFFCLQDRALLCRKCDVAIHTVNPHVSAHQRFLLTGIKVGLESIDTGPSTKSSPTNDDKTMETKPFVQSIPEPQKMAFDHHHHQQQQEQQEGVIPGTKVNDQTSTKLPLVSSGSTTGSIPQWQIEEIFGLTDFDQSYEYMENNGSSKADTSRRGDSDSSSMMRSAEEDGEDNNNCLGGETSWAVPQIQSPPTASGLNWPKHFHHHSVFVPDITSSTPYTGSSPNQRVGKRRRRF
Take B2: in experiment [2], the binding result is listed as “binds”.
